Results: patent US6329497A (The Scripps Research Institute, priority 1999, dated 2001)

Assay: general procedure: solution-phase peptide synthesis; EDCI, HOBt, NaHCO3 (chromophore coupling); DCC, DMAP (fragments)

## N-SES-D-Ser[Boc-Gly-Sar-NMe-Val]-Pip-OBn
Coupling step
  step yield: 79%

## Sandramycin
Late stage modification step
  step yield: 78%

## Sandramycin Bis-O-benzyl Ether
Conjugation step
  conjugation yield: 91%
